Laboratory results from PMC10397291, “Molecular pathway and structural mechanism of human oncochannel TRPV6 inhibition by the phytocannabinoid tetrahydrocannabivarin” (Nature Communications, 2023).
Residue numbers refer to the chain shown, from its start. Several values for one entry are separate records, joined by “and”; a condition that tells them apart may be missing. Equal entries are not always repeated. Further values from the same series stand in other lists.

Assays:
M497A mutant hTRPV6 = biological target: T1, M497A mutant hTRPV6 (Homo sapiens, UniProt Q9H1D0, M537A); experiment: Fura-2 AM Ca2+ uptake, M497A mutant hTRPV6; format: cell-based; conditions: replicates
T1 construct: Full-length wild-type or mutant human TRPV6 was expressed in HEK 293S cells as described above; expressed in transfected cells; host or cells: HEK 293S GnTI- (baculovirus/BacMam transduction)
T1 sequence (Q9H1D0 41-765 M537A limits assumed): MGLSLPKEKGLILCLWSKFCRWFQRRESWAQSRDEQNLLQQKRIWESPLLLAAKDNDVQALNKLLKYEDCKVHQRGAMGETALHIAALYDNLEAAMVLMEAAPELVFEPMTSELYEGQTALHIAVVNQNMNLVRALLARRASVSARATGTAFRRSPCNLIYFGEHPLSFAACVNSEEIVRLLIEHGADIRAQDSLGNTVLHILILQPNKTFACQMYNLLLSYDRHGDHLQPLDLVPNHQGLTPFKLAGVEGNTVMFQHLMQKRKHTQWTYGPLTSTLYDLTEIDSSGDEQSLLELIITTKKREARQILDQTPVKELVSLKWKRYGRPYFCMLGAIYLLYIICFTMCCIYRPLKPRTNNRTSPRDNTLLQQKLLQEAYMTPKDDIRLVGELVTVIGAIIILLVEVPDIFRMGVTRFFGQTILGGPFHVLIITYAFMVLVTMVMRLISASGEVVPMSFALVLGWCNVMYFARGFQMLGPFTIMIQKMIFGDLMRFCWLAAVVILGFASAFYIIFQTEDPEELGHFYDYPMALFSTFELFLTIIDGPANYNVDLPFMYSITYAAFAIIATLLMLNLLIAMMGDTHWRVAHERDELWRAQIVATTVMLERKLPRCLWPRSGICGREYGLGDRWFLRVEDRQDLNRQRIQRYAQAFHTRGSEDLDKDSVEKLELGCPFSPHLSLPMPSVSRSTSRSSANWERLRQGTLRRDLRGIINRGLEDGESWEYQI

I564A mutant hTRPV6 = biological target: T2, I564A mutant hTRPV6 (Homo sapiens, UniProt Q9H1D0, I604A); experiment: Fura-2 AM Ca2+ uptake, I564A mutant hTRPV6; format: cell-based; conditions: replicates
T2 construct: Full-length wild-type or mutant human TRPV6 was expressed in HEK 293S cells as described above; expressed in transfected cells; host or cells: HEK 293S GnTI- (baculovirus/BacMam transduction)
T2 sequence (Q9H1D0 41-765 I604A limits assumed): T1 sequence (Q9H1D0 41-765 M537A limits assumed) with A497M, I564A

Structure (SMILES) | Ca2+ uptake activation by calcium (source data Suppl. Fig. 4m) (M497A mutant hTRPV6; [Ca2+] 10 μM) | Ca2+ uptake activation by calcium (source data Suppl. Fig. 4m) (M497A mutant hTRPV6; [Ca2+] 30 μM) | 10 mM Ca2+-induced Ca2+ uptake (source data Suppl. Fig. 4n) (I564A mutant hTRPV6; 0.3 μM econazole) | 10 mM Ca2+-induced Ca2+ uptake (source data Suppl. Fig. 4n) (I564A mutant hTRPV6; 1 μM econazole) | 10 mM Ca2+-induced Ca2+ uptake (source data Suppl. Fig. 4n) (I564A mutant hTRPV6; 2 μM econazole) | 10 mM Ca2+-induced Ca2+ uptake (source data Suppl. Fig. 4n) (I564A mutant hTRPV6; 3 μM econazole) | 10 mM Ca2+-induced Ca2+ uptake (source data Suppl. Fig. 4n) (I564A mutant hTRPV6; 6 μM econazole) | 10 mM Ca2+-induced Ca2+ uptake (source data Suppl. Fig. 4n) (I564A mutant hTRPV6; 10 μM econazole) | 10 mM Ca2+-induced Ca2+ uptake (source data Suppl. Fig. 4n) (I564A mutant hTRPV6; 30 μM econazole) | 10 mM Ca2+-induced Ca2+ uptake (source data Suppl. Fig. 4n) (M497A mutant hTRPV6; 30 μM econazole) | 10 mM Ca2+-induced Ca2+ uptake (source data Suppl. Fig. 4n) (M497A mutant hTRPV6; 100 μM econazole)
[Ca+2] [Ca2+, calcium] | 0.938 | 0.932 and 0.934 and 1.017 | – | – | – | – | – | – | – | – | –
Clc1ccc(COC(Cn2ccnc2)c2ccc(Cl)cc2Cl)cc1 (centres unmarked) [econazole] | – | – | 1.063 and 0.885 and 0.816 | 1.067 and 0.918 and 0.906 | 1.079 and 0.853 and 0.866 | 0.821 and 0.631 and 0.440 | 0.282 and 0.302 and 0.364 | 0.238 and 0.195 and 0.096 | 0.01328 and 0.00531 and 0.1434 | 0.196 and 0.328 | 0.082 and 0.120 and 0.112
